Assay results: PubChem BioAssay AID504648 (National Center for Advancing Translational Sciences (NCATS), 2011)
In all, about 390,000 compounds went through this assay and about 610 (0.16%) were called active. The shares of active, inactive and inconclusive entries below differ from those in the screen. The call rests on the fitted dose curve; in most records, active means well fitted inhibition curve with a large enough effect; inconclusive means small, poorly fitted or top-dose-only effect, or effect the other way, or another doubt; inactive means no such curve, though single readings can be large or run the other way. Potencies of inconclusive entries are doubtful fits and often do not repeat.
On the % scale 0 is the no-effect control and ±100 the full control effect; potency means the concentration at half of the fitted maximal effect.

Assay: Nrf2 qHTS screen for inhibitors: counterscreen for cytotoxicity
Conditions: A549 ARE-Fluc cells, CellTiter-Fluor viability, 18-24 h; activity change, negative = cytotoxicity: at 46 µM (top of the series)
Outline: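 Cytotoxicity counterscreen: CellTiter-Fluor fluorescence was measured in A549 ARE_Fluc cells after 18-24 h of compound exposure in a concentration series. The subsequent BugLite luminescent read reports ARE-luciferase activity.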
With `C[C@@]12C(=O)OC(=O)[C@]1(C)C1CCC2O1` the Potency was inconclusive: 0.259 µM [falling, full curve].
With `COC(=O)c1ccc(N=c2sc(C(=O)OC)cc(=O)n2C)cc1` the Potency was “inactive”.
With `O=C1C=C(Nc2ccccc2O)c2ccccc2C1=O` the Potency was inconclusive: 20.6 µM [falling, single point].
In the case of `c1ccc(CCNc2nc(-c3cccnc3)cs2)cc1`, the Potency is reported as inconclusive: 29.1 µM [falling, single point].
For `Clc1ccc2c(NCCNC3CCCCC3)ccnc2c1`, the Potency was inconclusive: 23.1 µM [falling, single point].
With `CSc1nc(N(C)NC(=O)c2cccc(C)c2)c2ccccc2n1` the Potency was inconclusive: 0.291 µM [falling, full curve].
For `O=C(Nc1ccc(F)cc1)NC1(C(=O)NCc2ccco2)CCCCC1`, the Potency was “inactive”.
With `COc1ccc(CCN2CCC(Nc3nc4ccccc4n3Cc3ccc(F)cc3)CC2)cc1` the Potency was inconclusive: 23.1 µM [falling, partial curve, poor fit].
For `CN(C)C(=O)c1ccc(NC(=O)c2cccc(S(=O)(=O)N3CCCCCC3)c2)cc1`, the Potency was “inactive”.
In the case of `CC(=O)Nc1cc(OC(C)=O)c2nonc2c1OC(C)=O`, the Potency is reported as inconclusive: 29.1 µM [falling, single point].
In the case of `COc1ccc(Cl)cc1NC(=O)c1cccc([N+](=O)[O-])c1O`, the Potency is reported as inconclusive: 20.6 µM [falling, single point].
In the case of `COc1ccc2[nH]c3c(c2c1)CCN1C(=O)C(CC(=O)NCCC2=CCCCC2)C[C@H](C(=O)N2CCCCC2)[C@@]31C` (stereo not given in full), the Potency is reported as inconclusive: 29.1 µM [falling, single point].
With `CCOc1nc(-c2ccccc2)ccc1-c1noc(-c2ccco2)n1` the Potency was “inactive”.
In the case of `CCc1noc(C)c1C(=O)Nc1nc(-c2cccs2)cs1`, the Potency is reported as “inactive”.
In the case of `OC(COCCC12CC3CC(CC(C3)C1)C2)CN1CCCCC1` (stereo not given), the Potency is reported as inconclusive: 29.1 µM [falling, single point].
With `C[C@H](CO)N1C[C@H](C)[C@@H](CN(C)Cc2ccc(-c3ccccc3)cc2)Oc2c(NS(=O)(=O)c3cn(C)cn3)cccc2C1=O` the Potency was “inactive”.
In the case of `Cc1noc(C)c1COc1cccc(C(=O)Nc2ccc(Br)cc2F)c1`, the Potency is reported as inconclusive: 16.4 µM [falling, partial curve, poor fit].
In the case of `CN(C)C(CNc1ncccn1)c1ccccc1` (stereo not given), the Potency is reported as “inactive”.
In the case of `Cc1cc(C(=O)NCc2cc(F)cc3c2OCOC3)nn1C`, the Potency is reported as “inactive”.
For `O=C1S/C(=C\c2ccc(N3CCOCC3)o2)C(=O)N1c1ccccc1`, the Potency was inconclusive: 13 µM [falling, partial curve].
With `COc1ccc(NC(=O)CSc2nnc(-c3ccccc3Cl)n2Cc2ccco2)c(OC)c1` the Potency was “inactive”.
In the case of `O=c1[nH]c(C2CCN(S(=O)(=O)c3cccc(Cl)c3)CC2)nc2c1nnn2Cc1ccccc1`, the Potency is reported as inconclusive: 29.1 µM [falling, single point].
In the case of `COc1ccc(CNC(=O)/C(C#N)=C/c2cccc(OC)c2OC)cc1`, the Potency is reported as inconclusive: 20.6 µM [falling, single point].
With `CCCCC(=O)OCC(=O)c1[nH]c(C)c(C(=O)OCC)c1C` the Potency was “inactive”.
For `N#Cc1c(-c2ccccc2)c(-c2ccccc2)nn(CC(=O)NNC(=O)Nc2ccc(Cl)c(Cl)c2)c1=O`, the Potency was inconclusive: 20.6 µM [falling, single point].
In the case of `N#Cc1c(N)n(CCNC(=O)c2ccccc2)c2nc3ccccc3nc12`, the Potency is reported as inconclusive: 18.4 µM [activator, partial curve, poor fit].
For `O=c1c2ccc(Cl)cc2nc(-c2ccc([N+](=O)[O-])cc2)n1O`, the Potency was “inactive”.
For `CCc1nnc(SCc2cc(C)ccc2C)c2cc3sc(C)cc3n12`, the activity change, negative = cytotoxicity was inconclusive: -53% [activator].
For `COc1cc(CN(C)CCc2ccccn2)cc(OC)c1OC`, the Potency was “inactive”.
For `CC(=NNC(=S)N1CCCCCC1)c1cccc2cccnc12`, the Potency was inconclusive: 29.1 µM [falling, single point].
In the case of `CCC(C)N1C(=O)S/C(=C/c2ccc(Sc3nc4ccccc4[nH]3)o2)C1=O` (stereo not given), the Potency is reported as inconclusive: 8.2 µM [falling, partial curve, poor fit].
For `Cc1cc(NC(=O)CCS(=O)(=O)c2cc3c4c(c2)CCN4C(=O)CC3)ccc1Br`, the Potency was inconclusive: 23.1 µM [activator, partial curve, poor fit].
In the case of `Cc1cc(C)c2c(=O)cc(C(=O)Nc3ccccc3C(F)(F)F)oc2c1`, the Potency is reported as “inactive”.
With `Cc1ccc2ncc(C(=O)Nc3ccc(F)cc3F)c(=O)n2c1` the Potency was “inactive”.
For `COc1cccc(CNCC(O)COc2ccc(C(=O)c3ccccc3)cc2)c1` (stereo not given), the Potency was “inactive”.
With `Cc1ccc(S(=O)(=O)N2CCOCC2)cc1C(=O)OCCOc1cccc(Cl)c1` the Potency was “inactive”.
With `CCCOc1ccc(N2C(=O)CC(N(C(=O)c3ccco3)c3ccc(OCCC)cc3)C2=O)cc1` (stereo not given) the Potency was inconclusive: 5.8 µM [activator, partial curve, poor fit].
In the case of `CCOc1ccc(NC(=O)CSc2nc(=O)n(Cc3cccnc3)c3c2CCC3)cc1`, the Potency is reported as “inactive”.
With `CCOC(=O)c1cc(CC)sc1NC(=O)c1cc(OCC)c(OCC)c(OCC)c1` the Potency was inconclusive: 29.1 µM [activator, single point].
With `COc1ccc(C(CC(=O)O)NC(=O)COc2cc(C)ccc2C)cc1OC` (stereo not given) the Potency was “inactive”.
In the case of `CCCCCc1cc(=O)oc2c(C(CCN3CCCC(C)C3)c3ccc(OC)cc3)c(OC)cc(OC)c12` (stereo not given), the Potency is reported as inconclusive: 29.1 µM [falling, single point].
In the case of `CN1CCN(C(=O)CN(c2cc(C(F)(F)F)ccc2Cl)S(C)(=O)=O)CC1`, the Potency is reported as inconclusive: 7.31 µM [activator, partial curve, poor fit].
With `COc1ccc2oc(C(F)(F)C(F)F)cc(=O)c2c1` the Potency was inconclusive: 14.6 µM [activator, partial curve, poor fit].
For `c1cncc(CNc2ncnc3ccc(-c4ccc5c(c4)OCO5)cc23)c1`, the Potency was “inactive”.
In the case of `O=C(COc1ccc(/C=N/NC(=O)c2cc3ccccc3o2)cc1Cl)Nc1ccccc1`, the Potency is reported as inconclusive: 20.6 µM [falling, single point].
For `COc1ccc(-c2nnc(SCC(=O)Nc3cccc(F)c3)s2)cc1`, the Potency was “inactive”.
For `Cc1ccc(NCc2cccn2-c2nnc(N3CCCCCC3)s2)cc1`, the Potency was “inactive”.
For `Cc1ccc(N/C=C/C(=O)c2ccccc2)cc1Br`, the Potency was “inactive”.
In the case of `CC(=O)N(CCC(Cc1ccccc1)c1ccc2c(c1)OCO2)Cc1ccc(Cl)cc1` (stereo not given), the Potency is reported as inconclusive: 29.1 µM [falling, single point].
With `Cc1ccc(-n2c(SCC(=O)N(C)C3CCS(=O)(=O)C3)nc3ccccc3c2=O)c(C)c1` (stereo not given) the Potency was inconclusive: 2.31 µM [falling, partial curve, poor fit].
With `O=C(Cc1cccs1)NCc1ccccc1Br` the Potency was “inactive”.
With `CN1CCN(c2ccc(NC(=O)c3ccc(-c4ccc(Cl)cc4)o3)cc2)CC1` the Potency was inconclusive: 32.6 µM [falling, partial curve, poor fit].
For `COc1ccc(NC(=O)c2cc(-c3cc(OC)c(OC)c(OC)c3)nc3ccccc23)cc1OC`, the Potency was “inactive”.
In the case of `O=C(NC(Cc1c[nH]c2ccccc12)C(=O)N/N=C/c1ccc(Br)cc1)c1cccs1` (stereo not given), the Potency is reported as inconclusive: 23.1 µM [falling, single point].
With `CCOC(=O)c1sc(NC(=O)c2c(C)nn(Cc3ccccc3)c2C)cc1C` the Potency was inconclusive: 29.1 µM [falling, partial curve, poor fit].
For `COc1ccc(NS(=O)(=O)c2cc(NC(=O)Cc3n[nH]c(=O)c4ccccc34)ccc2OC)cc1`, the Potency was “inactive”.
With `Cc1ccc(NC2=C(c3ccc(C(F)(F)F)cc3)C(=O)c3ccccc32)cc1F` the Potency was inconclusive: 29.1 µM [falling, single point].
In the case of `CCCCn1c(N)c(N(CC)C(=O)C2COc3ccccc3O2)c(=O)[nH]c1=O` (stereo not given), the Potency is reported as inconclusive: 16.4 µM [falling, partial curve, poor fit].
For `CCOC(=O)c1cn(CC)c2c(ccc3ccccc32)c1=O`, the Potency was inconclusive: 14.6 µM [activator, partial curve, poor fit].
For `CCCCOC(=O)c1ccc(NS(=O)(=O)c2c(C)nc3scc(C)n3c2=O)cc1`, the Potency was “inactive”.
For `Cc1ccc(CNC(=O)Cn2ncc3c(C)n(Cc4ccc(Cl)cc4)c(C)c3c2=O)cc1`, the Potency was inconclusive: 29.1 µM [falling, partial curve, poor fit].
In the case of `COc1ccc(C(=O)Nc2ccc3ccccc3c2)cc1OC`, the Potency is reported as “inactive”.
In the case of `COc1ccc(NC(=O)c2cccc(Oc3ccc([N+](=O)[O-])cc3Cl)c2)cc1`, the Potency is reported as inconclusive: 29.1 µM [falling, partial curve, poor fit].
In the case of `Cc1ccnc(Nc2nc(-c3ccccc3)cs2)c1`, the Potency is reported as “inactive”.
In the case of `Cc1ccc(N2C(=O)C3C4C=CC(CNC(=S)Nc5ccc(Cl)cc5)(O4)C3C2=O)cc1` (stereo not given), the Potency is reported as inconclusive: 18.4 µM [falling, partial curve, poor fit].
With `COc1ccc(CN(C(=O)c2snc(C(N)=O)c2N)C(CC(C)C)C(=O)NC2CCCCC2)cc1` (stereo not given) the Potency was inconclusive: 18.4 µM [falling, single point].
With `CCNc1c([N+](=O)[O-])ncn1C` the Potency was inconclusive: 14.6 µM [falling, partial curve, poor fit].
In the case of `O=C(Nc1nc(-c2cc(Cl)sc2Cl)cs1)c1ccccc1`, the Potency is reported as inconclusive: 32.6 µM [falling, partial curve, poor fit].
In the case of `COc1cccc(NC(=O)COC(=O)c2c3c(nc4ccccc24)CCC(C)C3)c1` (stereo not given), the Potency is reported as inconclusive: 29.1 µM [falling, single point].
In the case of `O=c1c(O)c(-c2cccs2)oc2ccc(Cl)cc12`, the Potency is reported as inconclusive: 32.6 µM [activator, partial curve, poor fit].
